Results deposited as PubChem BioAssay AID504786 (Drosophila RNAi Screening Center, 2011)

Aim: 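Positive regulators of HIF-driven reporter output in Drosophila cells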 (primary screen)
System: Drosophila S2 cells with a stable HIF luciferase reporter
Reagents: long dsRNA against Drosophila genes, about 0.2 µg dsRNA per well of a 384-well plate
Duration: three days of knock-down, then 20 h of DFO before reading
Treatment: desferrioxamine (DFO) at 100 µM, an iron chelator that mimics hypoxia, for 20 h
Measured: 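Firefly luciferase driven by the mouse ldh-a hypoxia-response element, measured after 20 h of 100 µM DFO; z-scores per plate, higher means more signal lost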
Direction: z-score: higher = stronger loss of HIF reporter signal
The screen tested about 21,000 reagents; this is an unselected part of those with a known target gene and a result. 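Primary screen; positive scores mean lost reporter signal, so the sign may be inverted from the usual convention.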 A plus sign joins genes that one reagent is predicted to hit.

Target gene	DRSC id	z-score, replicate 1	z-score, replicate 2	z-score, replicate 3	z-score, replicate 4
Larp7	DRSC18798	0.8	-0.1		
vilya	DRSC18588	-0.2	-0.9		
CG32237	DRSC08312	-0.4	-0.7		
CG32237	DRSC08315	-0.4	-0.7		
Gbp2	DRSC06069	-0.1	-0.3		
CG15522	DRSC15059	0	0.3		
CG12547	DRSC07759	-0.3	-0.4		
CG3862	DRSC00631	0	-0.5		
mAChR-A	DRSC04702	-0.2	-0.2		
Ir94a	DRSC13538	-0.4	0.3		
CG18302	DRSC02663	-0.1	0.5		
CG14543	DRSC14887	3.1	1.1		
CG3199	DRSC15467	0	-0.1		
chif	DRSC03508	0.8	1.5		
rt	DRSC11391	-0.3	-0.1		
Chd64	DRSC08649	-0.2	-0.1		
CG15439	DRSC00453	-0.1	-0.2		
Pex1	DRSC11358	-0.3	-0.2		
Cow	DRSC13601	0.5	-0.5		
Cow	DRSC14680	-0.3	-0.2		
KaiR1D	DRSC15516	0.3	-0.3		
Myo95E	DRSC15821	-0.2	-0.2		
CG10208	DRSC14211	-0.4	0.5		
Kdsr	DRSC14245	0.2	0		
Gr59c	DRSC04185	-0.4	-0.2		
RpS23	DRSC07169	3.3	3.5		
CG18662	DRSC02691	-0.2	-0.2		
CG14950 (retired record)	DRSC08409	-0.3	0.3		
CG9344	DRSC04541	-0.2	0		
Parp16	DRSC06597	-0.3	-0.4		
mRpL30	DRSC18416	1	0.6		
Trxr2	DRSC11900	-0.3	-0.3		
Tis11	DRSC20293	0	0.3		
ana1	DRSC16079	-0.3	-0.2		
CG18417	DRSC10319	-0.2	0		
CG31787	DRSC01632	0.1	0.1		
CG31827 + CG18478	DRSC01958	-0.3	-0.3		
SecCl	DRSC10887	0	-0.3		
CG42714	DRSC08798	0	0.1		
vg	DRSC07715	-0.2	0	0	-0.4
Cdk5alpha	DRSC03290	0.5	0.5		
CG15155	DRSC02456	1.9	0.4		
CG8679	DRSC03109	-0.3	-0.3		
CG42404	DRSC15558	-0.3	-0.6		
CG1698	DRSC06640	-0.4	-0.1		
CG8837	DRSC00711	-0.1	-0.2		
Dlip3	DRSC07401	-0.2	-0.7		
CG15262	DRSC01975	-0.2	-0.3		
HLH3B	DRSC18669	-0.2	-0.9		
Rtc1	DRSC20285	0.5	3		
CG7203	DRSC03026	-0.1	-0.2		
Cp110	DRSC20630	-0.3	-0.7		
CG3770	DRSC04416	0	-0.7		
Panx	DRSC04563	-0.2	-0.3		
HDAC1	DRSC08696	0.8	0.8		
CG13473	DRSC10017	-0.3	-0.4		
tin	DRSC17083	0.2	0.5		
gammaSnap2	DRSC15992	-0.3	-0.5		
CG3457	DRSC18509	-0.3	-0.1		
Fum2	DRSC18345	-0.2	0.7		
Hug	DRSC16969	-0.4	-0.4		
CG13920	DRSC08389	-0.2	1.3		
smog	DRSC00334	-0.4	-0.4		
smog	DRSC00335	0.1	-0.5		
CG10638	DRSC09762	-0.2	0.2		
GluRIIA	DRSC03334	-0.1	-0.7		
CG1246	DRSC08275	-0.1	0.6		
Fs(2)Ket	DRSC03328	3.7	3.9		
dnk	DRSC16933	-0.1	0.9		
CG16717	DRSC10221	-0.4	-0.9		
Taf13	DRSC02106	0.3	0.5		
CG12470	DRSC18620	-0.4	3.4		
Gs1l	DRSC00754	-0.4	-0.4		
Alk	DRSC05918	-0.3	-0.7		
CG13838	DRSC14688	-0.6	-0.2	-0.6	-0.2
Cht10	DRSC03766	-0.2	-0.2		
Cht10	DRSC03767	-0.2	-0.1		
Cht10	DRSC03768	-0.3	-0.2		
CG13693	DRSC00362	0	0.1		
Mvk + CG33672 + spt4	DRSC05356	-0.3	0		
Mvk + CG33672 + spt4	DRSC06628	-0.2	-0.1		
Ir41a	DRSC04730	0.1	-0.2		
Ir41a	DRSC04875	-0.2	-0.5		
